Results on three molecules are retold here after article PMC6895700, “SIX3 and SIX6 interact with GEMININ via C-terminal regions” (Biochemistry and Biophysics Reports, 2019).

In test [1] the target is T1, pBiFC-VN155 (I152L) GEMININ (full-length) (human) (UniProt O75496).
T1 sequence: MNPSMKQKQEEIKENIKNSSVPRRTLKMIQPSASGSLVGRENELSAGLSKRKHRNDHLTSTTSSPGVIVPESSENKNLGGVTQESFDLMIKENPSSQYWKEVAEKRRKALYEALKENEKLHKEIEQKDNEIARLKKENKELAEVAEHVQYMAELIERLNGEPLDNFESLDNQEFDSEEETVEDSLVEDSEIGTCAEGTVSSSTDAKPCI
The test is described as follows: split reporter; BiFC with Venus halves in co-transfected COS-1 cells: SIX3/SIX6 constructs in pBiFC-VC155, GEMININ constructs in pBiFC-VN155 (I152L); fixed 24 h after transfection; confocal images; BiFC signal of about 100 single cells plotted against immunofluorescence (slope m).

Test [2] deals with T2, pBiFC-VN155 (I152L) GEMININ coiled-coil region (aa 82-160) (human) (UniProt O75496).
T2 sequence: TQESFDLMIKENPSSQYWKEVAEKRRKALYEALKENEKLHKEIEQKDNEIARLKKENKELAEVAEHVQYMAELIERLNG
Described as above.

Test [3] has as its target T3, MBP-fused full-length SIX3 (SIX3 without aa 1-78) (human) (UniProt O95343).
T3 sequence: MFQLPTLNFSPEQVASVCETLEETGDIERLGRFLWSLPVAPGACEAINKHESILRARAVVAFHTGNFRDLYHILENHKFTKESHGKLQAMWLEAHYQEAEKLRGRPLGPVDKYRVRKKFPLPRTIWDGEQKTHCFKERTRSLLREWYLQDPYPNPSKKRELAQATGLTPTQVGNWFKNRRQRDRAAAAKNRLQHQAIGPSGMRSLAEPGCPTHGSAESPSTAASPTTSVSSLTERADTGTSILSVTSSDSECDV
The experiment in a line: ITC; Nano ITC LV, 25 °C, PBS-TCEP with 300 mM NaCl (results: 437 mM NaCl); 200 μM GEMININ (or its coiled-coil region) in the syringe, 10 μM MBPSIX3 (or MBP alone) in the cell; independent binding sites model; GEMININ-to-MBP control subtracted; both purified. Background: Isothermal titration calorimetry measures the heat released or taken up as one component is titrated into another.

Results are given in words; binding and its absence hold for the method and conditions named. For some assays here: Binding seen in cells or lysates may run through a third protein. Some results given as binding are weak or reduced against the parent protein; the word gives no strength. For some assays here: Where a sequence is shown, tags or fusion partners need not be part of it.

B1: pBiFC-VC155 SIX6 (full-length) (protein, UniProt O95475 1-246)
chain: MFQLPILNFSPQQVAGVCETLEESGDVERLGRFLWSLPVAPAACEALNKNESVLRARAIVAFHGGNYRELYHILENHKFTKESHAKLQALWLEAHYQEAEKLRGRPLGPVDKYRVRKKFPLPRTIWDGEQKTHCFKERTRHLLREWYLQDPYPNPSKKRELAQATGLTPTQVGNWFKNRRQRDRAAAAKNRLQQQVLSQGSGRALRAEGDGTPEVLGVATSPAASLSSKAATSAISITSSDSECDI
With B1, the binding result is reported as “binds” in test [1] and “no binding” in test [2].

B2: pBiFC-VC155 SIX3 (SIX3 without aa 1-78, named full-length) (domain or fragment, UniProt O95343 79-332)
chain: T3 sequence
On to B2, for which the binding entry in test [1] is recorded as “binds”; in test [2], “no binding”.

B3: GEMININ coiled-coil region (aa 82-160), purified (domain or fragment, UniProt O75496 82-160)
chain: T2 sequence
In the case of B3, the binding result in test [3] is given as “no binding”.
